Like-named read-outs stand apart in the source and are kept apart here. Structures were worked out from names or drawings and are uncertain.
Legend:
human blood AChE = human blood AChE (Homo sapiens, UniProt P22303); assay: AChE inhibition in human donor whole blood (Ellman method); assay type: biochemical
[1] = molecular target: Electrophorus electricus AChE (Electrophorus electricus, UniProt O42275); assay: AChE inhibition, electric eel enzyme (Ellman method); assay type: biochemical

Amino acid sequences for entries named in this document (tags omitted). Residues count along the entry.
UniProt P22303, 32-617 isoform 2 limits assumed: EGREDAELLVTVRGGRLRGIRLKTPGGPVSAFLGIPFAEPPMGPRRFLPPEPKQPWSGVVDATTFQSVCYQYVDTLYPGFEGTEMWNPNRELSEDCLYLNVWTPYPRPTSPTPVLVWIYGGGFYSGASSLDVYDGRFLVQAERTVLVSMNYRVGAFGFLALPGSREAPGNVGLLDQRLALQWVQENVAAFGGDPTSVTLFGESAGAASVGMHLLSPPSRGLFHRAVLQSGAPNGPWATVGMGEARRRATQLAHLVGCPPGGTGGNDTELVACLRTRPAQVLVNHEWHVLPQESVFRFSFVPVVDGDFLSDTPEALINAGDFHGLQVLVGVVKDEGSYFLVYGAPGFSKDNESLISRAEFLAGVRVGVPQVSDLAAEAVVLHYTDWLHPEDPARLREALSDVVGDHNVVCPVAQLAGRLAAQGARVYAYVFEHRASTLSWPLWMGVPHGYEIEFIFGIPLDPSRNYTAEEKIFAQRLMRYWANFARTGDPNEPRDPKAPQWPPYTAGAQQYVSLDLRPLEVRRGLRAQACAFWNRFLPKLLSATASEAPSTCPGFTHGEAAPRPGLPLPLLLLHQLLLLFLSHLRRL
UniProt O42275, 24-633 limits assumed: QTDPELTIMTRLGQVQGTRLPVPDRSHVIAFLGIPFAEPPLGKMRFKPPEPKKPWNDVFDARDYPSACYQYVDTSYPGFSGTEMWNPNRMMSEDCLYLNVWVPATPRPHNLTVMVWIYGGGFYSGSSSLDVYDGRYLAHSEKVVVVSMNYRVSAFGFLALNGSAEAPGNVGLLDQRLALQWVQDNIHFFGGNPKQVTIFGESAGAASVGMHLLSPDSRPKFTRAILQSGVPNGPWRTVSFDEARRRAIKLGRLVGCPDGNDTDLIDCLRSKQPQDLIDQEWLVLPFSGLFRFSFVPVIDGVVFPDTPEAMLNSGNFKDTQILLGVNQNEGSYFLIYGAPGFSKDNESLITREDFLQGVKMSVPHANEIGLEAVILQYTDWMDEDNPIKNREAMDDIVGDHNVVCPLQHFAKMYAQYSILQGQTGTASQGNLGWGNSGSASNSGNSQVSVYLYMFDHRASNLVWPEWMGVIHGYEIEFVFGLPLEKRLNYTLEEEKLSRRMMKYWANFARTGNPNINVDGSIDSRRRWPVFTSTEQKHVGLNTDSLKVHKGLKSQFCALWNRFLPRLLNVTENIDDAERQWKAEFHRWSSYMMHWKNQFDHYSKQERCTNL

COP(=O)(OC)SCN1C(=O)c2ccccc2C1=O
AChE inhibition (in words), human blood (human blood AChE; concentration–response curves): show inhibition of AChE | Coefficient of variation (CV) C1 Human (human blood AChE; human variability in AChE inhibition, concentration level C1 (Table S2)): 5.8% | Coefficient of variation (CV) C2 Human (human blood AChE; human variability in AChE inhibition, concentration level C2 (Table S2)): 5.9% | Coefficient of variation (CV) C3 Human (human blood AChE; human variability in AChE inhibition, concentration level C3 (Table S2)): 5.6% | Coefficient of variation (CV) C4 Human (human blood AChE; human variability in AChE inhibition, concentration level C4 (Table S2)): 7.7% | Coefficient of variation (CV) C5 Human (human blood AChE; human variability in AChE inhibition, concentration level C5 (Table S2)): 6.1% | Coefficient of variation (CV) C6 Human (human blood AChE; human variability in AChE inhibition, highest concentration C6 (Table S2)): 7% | Human uncertainty factor (UF) UF97.5 (human blood AChE; interindividual differences, concentration closest to the IC20, 95% CI in brackets): 1.6 [1.4–1.8] | IC20 (human blood AChE; read-out: IC20 Human, whole blood, average of 20 donors): 0.67 µM | IC20 (human blood AChE; read-out: IC20 Value, donor 1): 0.3 µM | IC20 (human blood AChE; read-out: IC20 Value, donor 2): 0.2 µM | IC20 (human blood AChE; read-out: IC20 Value, donor 3): 0.3 µM | IC20 (human blood AChE; read-out: IC20 Value, donor 4): 0.2 µM | IC20 (human blood AChE; read-out: IC20 Value, donor 5): 0.4 µM | IC20 (human blood AChE; read-out: IC20 Value, donor 6): 0.7 µM | IC20 (human blood AChE; read-out: IC20 Value, donor 7): 1 µM | IC20 (human blood AChE; read-out: IC20 Value, donor 8): 0.4 µM | IC20 (human blood AChE; read-out: IC20 Value, donor 9): 0.6 µM | IC20 (human blood AChE; read-out: IC20 Value, donor 10): 0.4 µM | IC20 (human blood AChE; read-out: IC20 Value, donor 11): 0.3 µM | IC20 (human blood AChE; read-out: IC20 Value, donor 12): 0.8 µM | IC20 (human blood AChE; read-out: IC20 Value, donor 13): 1.5 µM | IC20 (human blood AChE; read-out: IC20 Value, donor 14): 0.4 µM | IC20 (human blood AChE; read-out: IC20 Value, donor 15): 0.6 µM | IC20 (human blood AChE; read-out: IC20 Value, donor 16): 0.8 µM | IC20 (human blood AChE; read-out: IC20 Value, donor 17): 0.9 µM | IC20 (human blood AChE; read-out: IC20 Value, donor 18): 1 µM | IC20 (human blood AChE; read-out: IC20 Value, donor 19): 1.1 µM | IC20 (human blood AChE; read-out: IC20 Value, donor 20): 1.5 µM | IC50 (human blood AChE; read-out: IC50 Human, whole blood, average of 20 donors): 1.8 µM | IC50 (human blood AChE; read-out: IC50 Value, donor 1): 0.7 µM | IC50 (human blood AChE; read-out: IC50 Value, donor 2): 0.6 µM | IC50 (human blood AChE; read-out: IC50 Value, donor 3): 0.8 µM | IC50 (human blood AChE; read-out: IC50 Value, donor 4): 0.4 µM | IC50 (human blood AChE; read-out: IC50 Value, donor 5): 1 µM | IC50 (human blood AChE; read-out: IC50 Value, donor 6): 1.4 µM | IC50 (human blood AChE; read-out: IC50 Value, donor 7): 3.1 µM | IC50 (human blood AChE; read-out: IC50 Value, donor 8): 1.3 µM | IC50 (human blood AChE; read-out: IC50 Value, donor 9): 1.3 µM | IC50 (human blood AChE; read-out: IC50 Value, donor 10): 1 µM | IC50 (human blood AChE; read-out: IC50 Value, donor 11): 1.5 µM | IC50 (human blood AChE; read-out: IC50 Value, donor 13): 3.7 µM | IC50 (human blood AChE; read-out: IC50 Value, donor 14): 1.4 µM | IC50 (human blood AChE; read-out: IC50 Value, donor 16): 2.3 µM | IC50 (human blood AChE; read-out: IC50 Value, donor 17): 2.1 µM | IC50 (human blood AChE; read-out: IC50 Value, donor 18): 2.3 µM | IC50 (human blood AChE; read-out: IC50 Value, donor 19): 4.2 µM | IC50 (human blood AChE; read-out: IC50 Value, donor 20): 4 µM | AChE inhibition (in words), electric eel ([1]; concentration–response curves): show inhibition of AChE | IC20 ([1]; read-out: IC20 Electric eel, 30 min exposure, room temperature): 0.04 µM | IC50 ([1]; read-out: IC50 Electric eel, 30 min exposure, room temperature, 3–4 independent experiments): 0.07 µM
